# Experimental data published in the supplement of paper PMC8728848.
# This is one part of the list.
# B1: PX14404-bvu-534-26-534 (Bacteroides vulgatus) (protein)
# chain: EDPRGKLTPENFFSTQDELNMSIYALYQKVNLSQVYTNMQLPQWQGDDITTNPGSNKQPAAEMDKFAAANNNKGVKDAWNMHYAIVKAANLIIQGASKTPTTQDEINIALGQAKFWRAYAYFTLVRLWGPLPMNLDNVNDDYTKPLSPVEEVYGHIVQDLTEAEAVLPTGYSGSPRFLNGVNVYVTRQAAKSTLAAVYMAMAGWPMNKTEYYAKAAEKAKEVIEGVNRGEYEYKLDKDYKDVYAMSNNYNNETVLGINYSPFVDWAQDSELTSCNQFESLGGWGDAWGEIRFWKEFPDGPRKDATYDPKIRLKDGTLVDWWELKEDGTPVVPEHHPMFSIFSVNWDPASKVNTSAPYDYTKPASQNMCNDHRHRIIRYSEVLLWYAEAKARTGQTDELAFKCLNDVRERAGLEPLTGLSADDLAEAAYKEHGWEVAGYWVALVTRRADQFRMNRLKDTFKERAENTAVEVADGILVKESVEYTNRTWSDNLMYLPYPDMDSQKNPNLVR
# Assays:
# Test in all cases: glycan array binding signal (z-score within array); higher = stronger binding
# Settings in all cases: glycan notation: IUPAC condensed, linker removed
# [1] = molecular target: GalNAc(b1-3)Gal
# Procedure, shortened: (§1)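 From the Consortium for Functional Glycomics database, 3228 arrays were curated, keeping only those whose protein sequence was available. Binding is given as a within-array Z-score averaged across arrays sharing a protein sequence and across linkers. Negative Z-scores can be read as non-binding.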
# [2] = molecular target: GalNAc(b1-3)Gal(a1-4)Gal(b1-4)GlcNAc
# Procedure, shortened: as §1
# [3] = molecular target: GalNAc(b1-3)Gal(a1-4)Gal(b1-4)GlcNAc(b1-3)Gal(b1-4)Glc
# Procedure, shortened: as §1
# [4] = molecular target: GalNAc(b1-3)Gal(a1-6)Gal(b1-4)Glc
# Procedure, shortened: as §1
# [5] = molecular target: GalNAc(b1-3)GalNAc
# Procedure, shortened: as §1
# [6] = molecular target: GalNAc(b1-3)GlcNAc
# Procedure, shortened: as §1
# [7] = molecular target: GalNAc(b1-4)Gal(b1-4)Glc
# Procedure, shortened: as §1
# [8] = molecular target: GalNAc(b1-4)GlcNAc
# Procedure, shortened: as §1
# [9] = molecular target: GalNAc(b1-4)GlcNAc(b1-2)Man
# Procedure, shortened: as §1
# [10] = molecular target: GalNAc(b1-4)GlcNAc(b1-2)Man(a1-3)[GalNAc(b1-4)GlcNAc(b1-2)Man(a1-6)]Man(b1-4)GlcNAc(b1-4)GlcNAc
# Procedure, shortened: as §1
# [11] = molecular target: GalNAc(b1-4)GlcNAc(b1-3)GalNAc(b1-4)GlcNAc
# Procedure, shortened: as §1
# [12] = molecular target: GalNAc(b1-4)GlcNAc6S
# Procedure, shortened: as §1
# [13] = molecular target: GalNAc(b1-6)GalNAc
# Procedure, shortened: as §1
# [14] = molecular target: GalNAc3S(b1-4)GlcNAc
# Procedure, shortened: as §1
# [15] = molecular target: GalNAc3S(b1-4)GlcNAc3S
# Procedure, shortened: as §1
# [16] = molecular target: GalNAc3S(b1-4)[Fuc(a1-3)]GlcNAc
# Procedure, shortened: as §1
# [17] = molecular target: GalNAc4S6S(b1-4)GlcNAc
# Procedure, shortened: as §1
# [18] = molecular target: GalNAc6S(b1-4)GlcNAc
# Procedure, shortened: as §1
# [19] = molecular target: Glc(a1-4)Glc
# Procedure, shortened: as §1
# [20] = molecular target: Glc(a1-4)Glc(a1-4)Glc(a1-4)Glc
# Procedure, shortened: as §1
# [21] = molecular target: Glc(a1-6)Glc(a1-6)Glc
# Procedure, shortened: as §1
# [22] = molecular target: Glc(a1-6)Glc(a1-6)Glc(a1-6)Glc
# Procedure, shortened: as §1
# [23] = molecular target: Glc(b1-4)Glc
# Procedure, shortened: as §1
# [24] = molecular target: Glc(b1-6)Glc
# Procedure, shortened: as §1
# [25] = molecular target: GlcA(b1-3)Gal
# Procedure, shortened: as §1
# [26] = molecular target: GlcA(b1-3)GlcNAc
# Procedure, shortened: as §1
# [27] = molecular target: GlcA(b1-6)Gal
# Procedure, shortened: as §1
# [28] = molecular target: GlcA3S(b1-3)Gal(b1-4)GlcNAc(b1-2)Man
# Procedure, shortened: as §1
# [29] = molecular target: GlcA3S(b1-3)Gal(b1-4)GlcNAc(b1-3)Gal(b1-4)Glc
# Procedure, shortened: as §1
# [30] = molecular target: GlcNAc(a1-3)Gal(b1-4)GlcNAc
# Procedure, shortened: as §1
# [31] = molecular target: GlcNAc(a1-4)Gal(b1-3)GlcNAc
# Procedure, shortened: as §1
# [32] = molecular target: GlcNAc(a1-4)Gal(b1-4)GalNAc
# Procedure, shortened: as §1
# [33] = molecular target: GlcNAc(a1-4)Gal(b1-4)GlcNAc
# Procedure, shortened: as §1
# [34] = molecular target: GlcNAc(a1-4)Gal(b1-4)GlcNAc(b1-3)Gal(b1-4)Glc
# Procedure, shortened: as §1
# [35] = molecular target: GlcNAc(a1-4)Gal(b1-4)GlcNAc(b1-3)Gal(b1-4)GlcNAc
# Procedure, shortened: as §1
# [36] = molecular target: GlcNAc(a1-4)Gal(b1-4)GlcNAc(b1-3)Gal(b1-4)GlcNAc(b1-3)Gal(b1-4)GlcNAc
# Procedure, shortened: as §1
# [37] = molecular target: GlcNAc(a1-4)Gal(b1-4)GlcNAc(b1-3)Gal(b1-4)[Fuc(a1-3)]GlcNAc(b1-3)Gal(b1-4)[Fuc(a1-3)]GlcNAc
# Procedure, shortened: as §1
# [38] = molecular target: GlcNAc(a1-6)Gal(b1-4)GlcNAc
# Procedure, shortened: as §1
binder,measurement,setting,value
B1,glycan array binding signal (z-score),[1],0.268
same,glycan array binding signal (z-score),[2],0.643
same,glycan array binding signal (z-score),[3],-0.497
same,glycan array binding signal (z-score),[4],-0.641
same,glycan array binding signal (z-score),[5],-0.228
same,glycan array binding signal (z-score),[6],-0.433
same,glycan array binding signal (z-score),[7],1.24
same,glycan array binding signal (z-score),[8],-0.29
same,glycan array binding signal (z-score),[9],1.36
same,glycan array binding signal (z-score),[10],-0.187
same,glycan array binding signal (z-score),[11],0.187
same,glycan array binding signal (z-score),[12],0.556
same,glycan array binding signal (z-score),[13],-0.868
same,glycan array binding signal (z-score),[14],-0.93
same,glycan array binding signal (z-score),[15],0.453
same,glycan array binding signal (z-score),[16],0.588
same,glycan array binding signal (z-score),[17],-0.452
same,glycan array binding signal (z-score),[18],-0.702
same,glycan array binding signal (z-score),[19],0.032
same,glycan array binding signal (z-score),[20],1.05
same,glycan array binding signal (z-score),[21],-0.19
same,glycan array binding signal (z-score),[22],0.424
same,glycan array binding signal (z-score),[23],-0.903
same,glycan array binding signal (z-score),[24],0.352
same,glycan array binding signal (z-score),[25],-0.659
same,glycan array binding signal (z-score),[26],1.07
same,glycan array binding signal (z-score),[27],0.681
same,glycan array binding signal (z-score),[28],-0.757
same,glycan array binding signal (z-score),[29],0.758
same,glycan array binding signal (z-score),[30],-0.95
same,glycan array binding signal (z-score),[31],0.178
same,glycan array binding signal (z-score),[32],0.254
same,glycan array binding signal (z-score),[33],0.553
same,glycan array binding signal (z-score),[34],-0.987
same,glycan array binding signal (z-score),[35],-0.584
same,glycan array binding signal (z-score),[36],-0.821
same,glycan array binding signal (z-score),[37],-0.135
same,glycan array binding signal (z-score),[38],-1.04

# An excerpt of these results, as tab-separated lines.
binder	measurement	setting	value
B1	glycan array binding signal (z-score)	[14]	-0.93
same	glycan array binding signal (z-score)	[15]	0.453
